{"sequences": {"note": "Protein sequences, listed by entry. Tags and fused reporters are not part of them. Residues count along the entry.", "UniProt Q9QUN7, residues 25-784": "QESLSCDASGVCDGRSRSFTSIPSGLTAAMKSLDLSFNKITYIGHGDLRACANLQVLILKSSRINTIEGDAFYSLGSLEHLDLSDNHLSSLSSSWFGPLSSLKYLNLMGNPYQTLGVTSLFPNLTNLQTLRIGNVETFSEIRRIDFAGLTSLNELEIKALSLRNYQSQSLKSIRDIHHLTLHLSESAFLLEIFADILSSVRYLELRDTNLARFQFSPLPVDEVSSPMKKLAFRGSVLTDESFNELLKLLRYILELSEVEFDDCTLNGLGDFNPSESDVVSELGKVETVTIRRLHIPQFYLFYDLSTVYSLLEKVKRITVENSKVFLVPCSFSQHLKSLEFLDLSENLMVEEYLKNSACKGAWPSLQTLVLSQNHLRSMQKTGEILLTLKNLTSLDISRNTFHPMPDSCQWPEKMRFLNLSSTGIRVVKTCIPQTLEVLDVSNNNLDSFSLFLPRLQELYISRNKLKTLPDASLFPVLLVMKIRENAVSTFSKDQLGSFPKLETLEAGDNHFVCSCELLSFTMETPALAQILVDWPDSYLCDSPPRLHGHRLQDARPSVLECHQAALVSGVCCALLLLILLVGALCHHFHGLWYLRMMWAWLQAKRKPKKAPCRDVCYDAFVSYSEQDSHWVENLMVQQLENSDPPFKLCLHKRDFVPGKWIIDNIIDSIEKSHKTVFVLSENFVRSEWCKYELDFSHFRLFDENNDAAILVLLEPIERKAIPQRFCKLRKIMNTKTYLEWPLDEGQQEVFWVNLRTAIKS", "UniProt Q9QUK6, residues 26-835": "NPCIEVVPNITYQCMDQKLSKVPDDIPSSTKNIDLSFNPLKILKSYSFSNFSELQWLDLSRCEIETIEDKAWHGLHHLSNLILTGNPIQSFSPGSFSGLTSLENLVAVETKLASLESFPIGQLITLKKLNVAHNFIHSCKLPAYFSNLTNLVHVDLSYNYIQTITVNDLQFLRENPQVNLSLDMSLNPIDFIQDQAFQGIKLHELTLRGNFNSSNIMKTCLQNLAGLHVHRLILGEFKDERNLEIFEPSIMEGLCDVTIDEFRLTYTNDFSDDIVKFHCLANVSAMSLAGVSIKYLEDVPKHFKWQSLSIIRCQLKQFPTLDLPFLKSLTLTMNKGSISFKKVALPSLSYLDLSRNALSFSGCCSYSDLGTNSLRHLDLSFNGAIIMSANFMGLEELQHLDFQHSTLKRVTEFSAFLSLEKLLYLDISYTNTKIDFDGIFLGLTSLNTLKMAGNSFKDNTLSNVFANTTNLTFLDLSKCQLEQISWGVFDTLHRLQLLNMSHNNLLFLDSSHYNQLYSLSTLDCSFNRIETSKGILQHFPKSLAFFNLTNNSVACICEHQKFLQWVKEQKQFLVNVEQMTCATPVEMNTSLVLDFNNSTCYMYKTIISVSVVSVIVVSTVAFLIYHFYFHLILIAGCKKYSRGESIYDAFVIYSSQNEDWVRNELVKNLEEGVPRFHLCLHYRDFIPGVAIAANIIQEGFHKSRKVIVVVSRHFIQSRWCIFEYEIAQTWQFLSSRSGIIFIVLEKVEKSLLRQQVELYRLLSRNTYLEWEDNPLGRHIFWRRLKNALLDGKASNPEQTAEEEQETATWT"}, "source": "paper PMC4125215", "binders": {"B1": {"name": "Recombinant Rv0652 protein, the 50S ribosomal protein L7/L12 (rplL) of Mycobacterium tuberculosis (protein, UniProt P9WHE3 1-130)", "chain": "MAKLSTDELLDAFKEMTLLELSDFVKKFEETFEVTAAAPVAVAAAGAAPAGAAVEAAEEQSEFDVILEAAGDKKIGVIKVVREIVSGLGLKEAKDLVDGAPKPLLEKVAKEAADEAKAKLEAAGATVTVK"}}, "key": {"[1]": {"molecular_target": "Toll-like receptor 2 (mouse (endogenous in dendritic cells of C57BL/6 mice)) (UniProt Q9QUN7)", "experiment": "flow cytometry on cells; DCs derived from WT, TLR2-/- and TLR4-/- mice treated with Rv0652 (0.5 ug/ml) for 1 h, stained with Alexa568-conjugated anti-Rv0652 mAb and FITC-conjugated CD11c Ab; percentage of labelled CD11c+ cells; only the binder purified"}, "[2]": {"molecular_target": "Toll-like receptor 4 (mouse (endogenous in dendritic cells of C57BL/6 mice)) (UniProt Q9QUK6)", "experiment": "flow cytometry on cells; DCs derived from WT, TLR2-/- and TLR4-/- mice treated with Rv0652 (0.5 ug/ml) for 1 h, stained with Alexa568-conjugated anti-Rv0652 mAb and FITC-conjugated CD11c Ab; percentage of labelled CD11c+ cells; only the binder purified"}}, "note": "These are yes or no findings as the source states them, for the method shown. Some entries that bind do so weakly or less than the wild type. Sequences can lack the tags named with a protein."}
{"binder": "B1", "values": [{"measurement": "binding", "setting": "[1]", "result": "no binding (tested: 0.5 ug/ml)"}, {"measurement": "binding", "setting": "[2]", "result": "binds"}]}
